Measured values published in patent US7238786B2, “Monoclonal antibody cPAM4” (Immunomedics, Inc., priority 2002, dated 2007).
Residue numbers refer to the chain shown, from its start. Results are given in words; binding and its absence hold for the method and conditions named. Some entries that bind do so weakly or less than the wild type.

Chains of the proteins cited; added tags and fusions are not shown. Residues count along the entry.
UniProt P15941, residues 24-125: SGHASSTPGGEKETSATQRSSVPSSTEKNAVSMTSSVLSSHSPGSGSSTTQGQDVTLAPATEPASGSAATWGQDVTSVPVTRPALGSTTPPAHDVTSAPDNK

B1: chimeric PAM4 antibody (antibody, V domains shown)
VL: DIQLTQSPAIMSASPGEKVTMTCSASSSVSSSYLYWYQQKPGSSPKLWIYSTSNLASGVPARFSGSGSGTSYSLTISSMEAEDAASYFCHQWNRYPYTFGGGTKLEIKR
V domain: QVQLQESGPELVKPGASVKMSCKASGYTFPSYVLHWVKQKPGQGLEWIGYINPYNDGTQYNEKFKGKATLTSDKSSSTAYMELSRLTSEDSAVYYCARGFGGSYGFAYWGQGTLITVSA
B2: murine PAM4 monoclonal antibody (antibody, V domains shown)
VL: DIVMTQSPAIMSASPGEKVTMTCSASSSVSSSYLYWYQQKPGSSPKLWIYSTSNLASGVPARFSGSGSGTSYSLTISSMEAEDAASYFCHQWNRYPYTFGGGTKLEIK
V domain: B1 V domain with Q1E

Legend:
[1] = molecular target: PAM4 antigen (MUC1 antigen; pancreatic cancer mucin) (human) (UniProt P15941); assay: competitive binding assay, unlabeled antibody against 131I-mPAM4 tracer on the antigen
[2] = molecular target: PAM4 antigen (MUC1 antigen; pancreatic cancer mucin) (human) (UniProt P15941); assay: immunohistochemical staining studies

| Binder | binding [1] | binding [2] |
| --- | --- | --- |
| B1 | binds |  |
| B2 | binds | binds |
